{"source": "patent US20170165274A1", "about": "“COMPOSITION” (SHIELD TX (UK) LTD., priority 2014, published 2017)", "key": {"[1]": {"system": "tongue", "experiment": "Taste test: solutions applied to areas of the tongue with a soaked cotton wool bud, blindfolded subjects", "assay_type": "in vivo, human"}, "[2]": {"conditions": "compared with sugar; cited from earlier work"}, "[3]": {"conditions": "both concentrations pooled, 24 tests"}, "[4]": {"conditions": "10^−4 M, 12 tests (3 areas x 4 subjects)"}, "[5]": {"conditions": "10^−3 M and 10^−4 M pooled, 24 tests"}, "[6]": {"conditions": "10^−3 M, 12 tests (3 areas x 4 subjects)"}}}
{"compound": "OC[C@H]1O[C@@](CO)(O[C@H]2O[C@H](CO)[C@@H](O)[C@H](O)[C@H]2O)[C@@H](O)[C@@H]1O", "note": "[Sugar, reference compound]", "values": [{"measurement": "Number of tests perceived as a (sweet)", "setting": "[1]; [3]", "value": 19}, {"measurement": "Number of tests perceived as e (no taste)", "setting": "[1]; [3]", "value": 5}]}
{"compound": "OC[C@@H](O)[C@@H](O)[C@H](O)[C@@H](O)CO", "note": "[Sorbitol]", "values": [{"measurement": "Relative sweetness of sugar", "setting": "[2]", "value": 50, "unit": "%"}]}
{"compound": "O=S(=O)([O-])[O-].[Fe+2]", "note": "[FeS04, iron sulphate, reference compound]", "values": [{"measurement": "Number of tests perceived as c (sour/metallic)", "setting": "[1]; [3]", "value": 12}, {"measurement": "Number of tests perceived as d (bitter and metallic)", "setting": "[1]; [3]", "value": 7}, {"measurement": "Number of tests perceived as e (no taste)", "setting": "[1]; [3]", "value": 5}]}
{"compound": "OC[C@@H](O)[C@@H](O[C@H]1O[C@H](CO)[C@@H](O)[C@H](O)[C@H]1O)[C@H](O)[C@@H](O)CO", "note": "[Maltitol]", "values": [{"measurement": "Relative sweetness of sugar", "setting": "[2]", "value": 75, "unit": "%"}]}
{"compound": "OC[C@@H](O)[C@@H](O[C@@H]1O[C@H](CO)[C@H](O)[C@H](O)[C@H]1O)[C@H](O)[C@@H](O)CO", "note": "[Lactitol]", "values": [{"measurement": "Relative sweetness of sugar", "setting": "[2]", "value": "30-40%"}]}
{"compound": "O=S(=O)([O-])[O-].[Fe+2]", "note": "[Solution 4]", "values": [{"measurement": "Number of tests perceived as c (sour/metallic)", "setting": "[1]; [4]", "value": 4, "unit": "c"}, {"measurement": "Number of tests perceived as d (bitter and metallic)", "setting": "[1]; [4]", "value": 4, "unit": "days"}, {"measurement": "Number of tests perceived as e (no taste)", "setting": "[1]; [4]", "value": 4, "unit": "e"}]}
{"compound": "Cc1occc(=O)c1[O-].Cc1occc(=O)c1[O-].Cc1occc(=O)c1[O-].[Fe+3]", "note": "[Fe[Maltol]3, ferric trimaltol]", "values": [{"measurement": "Indistinguishable from tap water", "setting": "[1]; [5]", "value": 15, "unit": "tests"}, {"measurement": "Recognized as slightly metallic", "setting": "[1]; [5]", "value": 9, "unit": "tests"}, {"measurement": "Number of tests perceived as c (sour/metallic)", "setting": "[1]; [3]", "value": 3}, {"measurement": "Number of tests perceived as d (bitter and metallic)", "setting": "[1]; [3]", "value": 6}, {"measurement": "Number of tests perceived as e (no taste)", "setting": "[1]; [3]", "value": 15}]}
{"compound": "O=S(=O)([O-])[O-].[Fe+2]", "note": "[Solution 3]", "values": [{"measurement": "Number of tests perceived as c (sour/metallic)", "setting": "[1]; [6]", "value": 8, "unit": "c"}, {"measurement": "Number of tests perceived as d (bitter and metallic)", "setting": "[1]; [6]", "value": 3, "unit": "days"}, {"measurement": "Number of tests perceived as e (no taste)", "setting": "[1]; [6]", "value": 1, "unit": "e"}]}
{"compound": "Isomalt", "values": [{"measurement": "Relative sweetness of sugar", "setting": "[2]", "value": "45-65%"}]}
{"compound": "Cc1occc(=O)c1[O-].Cc1occc(=O)c1[O-].Cc1occc(=O)c1[O-].[Fe+3]", "note": "[Solution 6]", "values": [{"measurement": "Number of tests perceived as d (bitter and metallic)", "setting": "[1]; [4]", "value": 2, "unit": "days"}, {"measurement": "Number of tests perceived as e (no taste)", "setting": "[1]; [4]", "value": 10, "unit": "e"}]}
{"compound": "Cc1occc(=O)c1[O-].Cc1occc(=O)c1[O-].Cc1occc(=O)c1[O-].[Fe+3]", "note": "[Solution 5]", "values": [{"measurement": "Number of tests perceived as c (sour/metallic)", "setting": "[1]; [6]", "value": 3, "unit": "c"}, {"measurement": "Number of tests perceived as d (bitter and metallic)", "setting": "[1]; [6]", "value": 4, "unit": "days"}, {"measurement": "Number of tests perceived as e (no taste)", "setting": "[1]; [6]", "value": 5, "unit": "e"}]}
{"compound": "OC[C@@H](O)[C@@H](O)[C@H](O)[C@H](O)CO", "note": "[Mannitol]", "values": [{"measurement": "Relative sweetness of sugar", "setting": "[2]", "value": "50-70%"}]}
